From patent publication US20030032092 come the findings set out here.

For part of these data: Where a protein sequence is shown, tags need not be part of it. The exact form of at least one protein or probe is not confirmed.

Data set [1] has as its target T1, bacteriophage lambda integrase (Int) (Bacteriophage lambda) (UniProt P03700).
T1 sequence (looked up, limits assumed): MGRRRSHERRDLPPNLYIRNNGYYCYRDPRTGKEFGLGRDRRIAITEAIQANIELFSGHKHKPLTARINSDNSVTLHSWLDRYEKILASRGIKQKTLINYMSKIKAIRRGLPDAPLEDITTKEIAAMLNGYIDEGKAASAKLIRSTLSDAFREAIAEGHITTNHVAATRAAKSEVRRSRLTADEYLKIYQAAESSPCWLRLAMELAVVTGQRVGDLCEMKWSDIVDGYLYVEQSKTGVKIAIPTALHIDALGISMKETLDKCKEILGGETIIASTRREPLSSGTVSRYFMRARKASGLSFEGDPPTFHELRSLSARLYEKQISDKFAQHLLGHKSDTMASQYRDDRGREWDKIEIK
Put plainly: activity in cells. To be noted: protein in cells.

Data set [2] relates to bacteriophage lambda integrase (Int) + excisionase (Xis) (Bacteriophage lambda). Put plainly: activity in cells. To be noted: E. coli G6289/pXL3955, Int plus Xis, 0.05% arabinose 1 h 30 C; attL x attR; protein in cells.

On to “ACTAGTGGCCATGCATCCGCTCAAGTTAGTATAAAAAAGCAGGCTTCAG / AGCTCTGAAGCCTGCTTTTTTATACTAACTTGAGCGGATGCATGGCCACTAGTAGCT [attB (oligos 6194/6195) in pXL2777, with attP]”, for which the “activity on this sequence” value in data set [1] (E. coli D1210HP, 42 C 15 min then 30 C, minicircle and miniplasmid formed, including dimers) was “active”.
“TCGAGTTCTTTTTTTTCTTGAAGCCTGCTTTTTTACTAACTTGAGCG / AGCTCGCTCAAGTTAGTATAAAAAAGCAGGCTTCAAGAAAAAAAAGAAC” yielded an activity on this sequence in data set [1] (E. coli G6264, pXL3909, arabinose induction, 30 C, none without inducer, pXL3948 more than 90% in fermentation) of 90 % recombined.
With “TTCTTTTTTTTCTTGAAGCCTGCTTTTTTATACTAAGTTGGCATTATAAAAAAGCATTGCTTATCAATTTGTTGCAACGAACAGGTCACTATCAGTCAAAATAAAATCATTATTTGATT (double strand) [attL-TH in pXL3955, with attR]”, the activity on this sequence in data set [2] amounted to 80 % recombined.
